# Over roughly 33,000 sequences, “E-score (-0.5 to 0.5)” has its median near -0.0034; the highest 2% begin near 0.25. The list shows a part of the results.
# Target: T1, Yap3 (UniProt P38749)
# T1 sequence: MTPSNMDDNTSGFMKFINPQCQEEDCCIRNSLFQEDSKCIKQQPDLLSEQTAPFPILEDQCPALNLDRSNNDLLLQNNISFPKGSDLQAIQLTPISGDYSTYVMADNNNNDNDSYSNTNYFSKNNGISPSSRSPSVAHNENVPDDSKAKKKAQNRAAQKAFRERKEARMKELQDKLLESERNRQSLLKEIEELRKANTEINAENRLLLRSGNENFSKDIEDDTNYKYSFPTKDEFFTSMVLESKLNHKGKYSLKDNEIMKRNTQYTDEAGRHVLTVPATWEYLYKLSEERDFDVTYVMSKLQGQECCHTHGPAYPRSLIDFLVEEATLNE
# Test: PBM E-score (8-mer binding enrichment) (E-score (-0.5 to 0.5)); higher = stronger / more preferred TF binding
# Conditions: protein concentration: 100 nM; construct: GST-full length
# Procedure, shortened: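 For each ungapped eight-base word taken together with its reverse complement, the Universal PBM Analysis Suite assigned an E-score. Binding data came from GST-tagged yeast transcription factors, applied at about 100-200 nM, on universal all-10-mer Agilent arrays made double-stranded by primer extension. Fluorescent anti-GST marked bound protein, and scans were normalised with masliner.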
row,Sequence,PBM E-score
1,CCGCGGCA,0.135
2,AAAATCTG,0.0665
3,TAGTAGCA,0.0781
4,CGCTTCCC,-0.0785
5,ATCTGTGA,-0.00482
6,CGTATGAG,-0.0088
7,AAAGCACC,-0.0505
8,ATCTCCAG,-0.0176
9,GATGGGCA,0.0495
10,GGTTCCTA,0.049
11,ACAAGAGG,-0.0667
12,CAAGTCAA,-0.0315
13,ACAGTCCA,-0.0527
14,TAATGCTA,0.203
15,AGGTTAAG,-0.0592
16,CGCCCCGA,-0.134
17,CCTGAAGG,-0.16
18,GCACAAAC,0.0654
19,CCCCAACA,-0.111
20,GATGGGAA,-0.111
21,CATCGATC,0.0575
22,CAGACGCA,-0.0728
23,CGGCCTAA,-0.0291
24,CGGTAACG,-0.146
25,GGCGAGCC,-0.0901

row,Sequence,PBM E-score
1,CTAGCGAA,-0.254
2,AGATGAAA,0.179
3,ATCGATGA,0.0972
4,CCTCTCCC,-0.147
5,AGTTCCAG,-0.123
6,AGAGTTCG,0.0811
7,GTGACGTA,0.227
8,CGTAAGGA,0.0166
9,CAGGCCTA,0.0511
10,CCTCAGAA,-0.0691
11,CACTGATA,-0.0531
12,CCAGTCGC,-0.171
13,ACCTACGA,-0.0771
14,AGTGCCGC,-0.0573
15,CATATGTC,-0.0235
16,ATACCACC,0.086
17,CATGCTAG,0.0514
18,ATAAGATG,0.176
19,AATTCAAG,0.0689
20,ACTTGGGA,-0.165
21,GCTCAAAA,0.0358
22,CTCTATCC,-0.00886
23,GGTTCTAC,-0.134
24,CTTGCTCC,-0.0937
25,GTCGACTA,0.174

row,Sequence,PBM E-score
1,ATCGGGCA,-0.0101
2,TCAAACCA,0.165
3,CACTCTAC,0.113
4,ACCAGCAG,-0.186
5,CGGTGGTC,-0.194
6,AGCCAGGA,-0.0633
7,ACATTCAT,0.13
8,GTATTAGA,0.217
9,GCGGAGCC,-0.178
10,GGCTCACC,-0.288
11,TGCAACAA,0.0351
12,AACGGGGC,-0.0379
13,CTCAAGTC,-0.0358
14,CCCTTATA,0.17
15,AAGGAAAG,0.0223
16,AAGGTGCA,-0.0513
17,CGTAGTCC,-0.184
18,AACGTCAA,0.0188
19,CTTGTGAA,0.0996
20,AAACGCCA,0.107
21,AATATGGT,0.226
22,ATAGGACC,-0.0967
23,GGCATGCC,0.00174
24,CTCATGCA,0.0601
25,TTATTAAA,0.34

row,Sequence,PBM E-score
1,CTGATAGA,-0.00922
2,CATGCTGC,-0.042
3,ATTTTCTC,0.0752
4,AGTAGCCA,-0.141
5,AGATTCGA,-0.0893
6,AAAGACCT,0.0294
7,GATTGATA,0.22
8,GACGGGTA,-0.183
9,CATAGGGC,-0.204
10,ACAGGCAA,0.153
11,GTGAAGCA,-0.0143
12,GCCAAAGA,0.0383
13,ATATGATC,0.294
14,AGAGCGGC,-0.0586
15,ATTGCCAA,-0.00347
16,AATGTGGA,0.031
17,CATTCAGG,-0.0924
18,CAAGAGCG,-0.0057
19,ACCGATGC,-0.0869
20,GTAGACAC,0.021
21,CGGTGTGA,0.115
22,GAATGCGC,0.124
23,ATGACTAA,0.431
24,CCTGGGGA,-0.423
25,ACAGGGAT,-0.0719

row,Sequence,PBM E-score
1,ATCGAAGC,-0.0904
2,CATGCGAG,-0.0122
3,AAGAAAGG,-0.0192
4,AGCTTCAG,-0.234
5,AGAAAATG,0.0715
6,GCTGAGCC,-0.154
7,CGTCGTTC,0.209
8,CAGGGACC,-0.266
9,ACCAACCA,0.00621
10,CAGGTAAA,0.242
11,GGTTGACA,-0.0206
12,ACATAACT,0.192
13,CACACCGA,0.0421
14,ACTCGGCG,-0.0597
15,CTTGCTAA,-0.194
16,CGTTTACA,0.0626
17,CCATCTAG,-0.112
18,GCTGCTAC,-0.191
19,GATACTGA,0.0116
20,GGGCCGAC,-0.119
21,CCCATTAC,0.0821
22,CCACCAAA,0.00978
23,ACCGTATG,-0.0219
24,ACCAAGAT,-0.00908
25,AGTGAAGG,0.0123

# Part of the list above, bar-delimited:
row | Sequence | PBM E-score
5 | AGAAAATG | 0.0715
13 | CACACCGA | 0.0421
14 | ACTCGGCG | -0.0597
15 | CTTGCTAA | -0.194
16 | CGTTTACA | 0.0626
21 | CCCATTAC | 0.0821

# Next entries.

row,Sequence,PBM E-score
1,CCTGGGTA,-0.172
2,CATGAGAA,0.0305
3,CTTCCGTC,-0.101
4,AGCCCCAT,-0.171
5,CCATGGGA,-0.00213
6,CCGGGGCA,-0.245
7,AAAACCCT,0.0535
8,CCATTCAC,-0.0318
9,CGGCGTGC,-0.259
10,AACTCATC,0.0719
11,GGGCTAAC,-0.234
12,CCGAAACC,-0.155
13,ACTCCATG,-0.184
14,CACGCTAG,0.0997
15,GTAATCCA,0.236
16,AACGGAAG,0.2
17,CCGTTCAA,0.0445
18,AGAATCAA,0.0192
19,AACACTGA,0.245
20,CTATTGCC,-0.0289
21,GCAGAGCC,-0.261
22,ACGTGGAA,0.0425
23,AGGGAGAC,-0.229
24,CCTCTGGC,-0.019
25,TTCGAAAA,0.189

# Reformatted with bars between the fields: entries from further up
row | Sequence | PBM E-score
6 | CCGGGGCA | -0.245
7 | AAAACCCT | 0.0535
8 | CCATTCAC | -0.0318
9 | CGGCGTGC | -0.259

# (next part)

row,Sequence,PBM E-score
1,TAGCAGAA,0.122
2,ATTTAGCA,0.111
3,AGGATGAG,0.0242
4,CGCGAATC,0.0799
5,ACCAAGAA,0.135
6,ATACTCCC,-0.108
7,AAGTAGTA,0.0994
8,CTTGGCCC,-0.255
9,GGATCCCC,-0.271
10,CATCTGCA,0.101
11,GTGCTACA,-0.0146
12,GTTGCCCA,0.0716
13,AGCTTGTG,0.0192
14,AAATACAA,0.197
15,CGGGGGTC,-0.482
16,AAGTATCC,-0.00257
17,AACTGTAG,0.116
18,CGGACACG,-0.068
19,CCGGCTCG,-0.157
20,CGACGAGA,-0.00791
21,GGGAACCC,-0.179
22,CATGAAAA,0.177
